## Percent effect of library compounds

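Assay of Toxoplasma gondii numbers, read through their beta-galactosidase reporter with a colour substrate. Concentration: 50 µM. Higher reads as fewer parasites (inferred from which compounds were picked for retests). Of about 18,000 compounds tested this way, about 170 (0.94%) reached 50% or more in at least one test.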

Each number is a percent effect as filed. The record does not define 0% and 100%; most values in the screen are far below 50% and negative numbers occur (in some assays of this library far below -100). Compounds were drawn at random from those tested, without regard to their results.

Compound,Percent Effect
O=C(Nc1ccccn1)C1CCS(=O)(=O)C1 (configuration not stated),5.332%
CC(C)OCc1nc(C(C)N)no1 (configuration not stated),-1.581%
COCCC(=O)NCC(OC)c1cccc(Cl)c1 (configuration not stated),-0.05033%
Cc1cnc(Cn2ccc(C)c(C#N)c2=O)o1,0.5152%
CCOc1ccccc1CSc1nnc(O)[nH]1,-3.612%
O=C(CCc1ccsc1)NCC(=O)N1CCOCC1,-4.122%
CN(C)CCCNC(=O)c1cc2ccccc2o1,-34.38%
CC(C)N1CCC(NC(=O)c2ccc(C#N)cc2)CC1,-2.927%
NCc1nc(C(F)F)no1,16.38%
COC(=O)CNc1cc(Cl)ccc1C(=O)N1CCCC1,-12.8%
CCc1cc(C(=O)NCCS(=O)(=O)N(C)C)cs1,-18.7%
NC1CCCN(c2ccccc2F)C1 (configuration not stated),3.074%
Cc1noc(CCNC(=O)c2cnc(C)c(Br)c2O)n1,-5.451%
CS(=O)(=O)CCN1CCC(c2ccn[nH]2)CC1,-3.545%
N[C@@H]1C[C@@H]2CC[C@H]1O2,4.498%
Cc1noc(CCCNC(=O)c2ccon2)n1,62.73%
CNCC(C)(C)CCO,-4.869%
Cn1ccnc1CC1CCCN(S(C)(=O)=O)C1 (configuration not stated),-0.1576%
CCCNC(=O)N1CCCC(C2OCCO2)C1 (configuration not stated),-5.673%
CN(C)C(=O)C1OCCc2ccccc21 (configuration not stated),-9.561%
Cn1nccc1C(=O)NC1CCc2ccccc2OC1 (configuration not stated),1.645%
CCNc1ccc(N2CCOCC2)cc1,10.1%
O=C(Nc1ccc(NC(=O)C2CC2)nc1)NC1CC1,-11.95%
CCC(N)(CC)CNS(=O)(=O)c1cccc(C(C)=O)c1,-19.3%
O=C(NC[C@H]1CCCN1)c1ccc2cccc(Cl)c2n1,23.34%
CC(C)Sc1ncccc1C(=O)NCC1CCOC1 (configuration not stated),7.78%
COc1ccc(NC(=O)CSCC#N)cc1,-5.066%
Cc1cccc(OCCNC(=O)CN(C)CC(N)=O)c1,30.75%
COC(=O)c1ccc(C(=O)N=c2sccn2C)cc1,-5.352%
CNC(=O)[C@@H]1C[C@@H](N)CN1Cc1cccnc1OC,-2.427%
CC(C)(C)C(=O)N1CCN(CCCC#N)CC1,9.017%
Cc1noc(-c2ccc(=O)n(CC(C)C)n2)n1,-17.12%
O=C(C1CCOC1)N1CCN(c2ccncc2Cl)CC1 (configuration not stated),11.98%
CCO[C@H]1CN(C(=O)CCn2ccnc2C)C[C@@H]1O,10.66%
O=c1[nH]ccn2nc(-c3ccc4c(c3)OCO4)cc12,-17.61%
O=C(NCC1CCCO1)N(CC(F)F)C1CC1 (configuration not stated),-0.4529%
NCC(CO)Cc1ccc(F)c(F)c1 (configuration not stated),20.05%
Nc1nnc(SCC(=O)NCCOc2ccccc2)s1,23.38%
CCC(C)(C)NC(=O)c1ccn(-c2ccccc2F)n1,21.9%
O=C1NCCN1CCNc1cc(C2CC(O)C2)ncn1 (configuration not stated),17.22%
Cc1n[nH]c(C)c1S(=O)(=O)N1CCC2(CCNCC2)C1,-3.3%
COCCNC(=O)c1ccc(N2CCCC(O)C2)nc1 (configuration not stated),-11.03%
O=C(CNC1CC1)NC[C@H]1CCc2ccccc2O1,-0.5581%
CCn1c(CN(C)CCSC)nnc1[C@H]1C[C@@H](N)C1,7.255%
Cc1c(Br)cccc1C(=O)NCCN1CCNCC1,-7.091%
Cc1cc(C(=O)NCc2ccc(CO)cc2)cc(C)n1,4.895%
Cc1cc(C(=O)NCC2(O)CCSC2)c(C)o1 (configuration not stated),6.436%
COCCC1(CO)CCCN(CC(N)=O)C1 (configuration not stated),0.1422%
CCN(CC1CCOC1)C(=O)C(C)(C)C (configuration not stated),-9.001%
CC(C)(C(=O)N1CCNCC1)c1ccccc1,1.112%
CC(Cc1ccco1)NC(=O)c1cccnc1O (configuration not stated),-3.239%
CC1(C)CCC(CO)NC1 (configuration not stated),-13.77%
CN(C)c1ccnc(C(=O)NCC(=O)c2ccco2)c1,-15.01%
CCc1nc(CNc2ccc(C#N)nc2)cs1,3.28%
O=C1C[C@H]2CC[C@@H](CN1)N2C(=O)c1ccc(F)c(O)c1,19.07%
Cc1n[nH]c(C)c1NC(=O)OC(C)(C)C,20.85%
COc1ccc(CN(C)C(=O)CCNC(C)=O)cc1F,-5.409%
CN(C)C(C)(C)CNC(=O)c1c(O)cccc1F,-1.211%
O=C1NCCNC1c1ccc2c(c1)OCO2 (configuration not stated),-8.115%
CC(C)(CO)CCCNC(=O)N1CCSCC1,-11.73%
CC1CC(=O)N(C)c2ccccc2N1 (configuration not stated),-4.107%
COc1cc2c(cc1OC)CN(C(=O)CCN)CC2,-12.72%
NC(=O)CCN1C(=O)CCC1=O,1.954%
CC(C)N(CC(N)=O)CC(=O)Nc1ccc(Cl)cc1F,-3.054%

The values are deposited in ChEMBL (CHEMBL3988442, “University of Dundee, Small-Polar-MMV Screening Library” (2021)).